Results reported in PubChem BioAssay AID652054 (National Center for Advancing Translational Sciences (NCATS), 2013).
Screen size: about 360,000 compounds; about 9,100 (2.5%) were called active. The inconclusive results got no clear call from the source; some entries with a clear call stand among them for comparison. No stated cut-off is given here; in the data, active means max response below about -50%; inconclusive means no clear call, values can overlap the other calls; inactive means above that.

Chains of the proteins cited; added tags and fusions are not shown.
UniProt P35462, whole entry, looked up: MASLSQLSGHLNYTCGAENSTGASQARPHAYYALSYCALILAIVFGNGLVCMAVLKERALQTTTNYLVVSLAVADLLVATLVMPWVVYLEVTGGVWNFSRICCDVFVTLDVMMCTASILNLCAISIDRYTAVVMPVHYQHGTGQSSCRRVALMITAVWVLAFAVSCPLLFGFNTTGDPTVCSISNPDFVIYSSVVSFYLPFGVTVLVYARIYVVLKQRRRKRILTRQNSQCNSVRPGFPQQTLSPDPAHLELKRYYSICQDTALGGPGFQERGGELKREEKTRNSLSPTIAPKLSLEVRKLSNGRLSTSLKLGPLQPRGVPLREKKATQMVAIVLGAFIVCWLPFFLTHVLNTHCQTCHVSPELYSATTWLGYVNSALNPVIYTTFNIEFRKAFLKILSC

biological target: D(3) dopamine receptor (Homo sapiens) (UniProt P35462); assay: qHTS of D3 Dopamine Receptor Antagonist: qHTS; conditions: D3R cells, DiscoveRx beta-arrestin luminescence, antagonist mode; active compounds read low
How it was run: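 Cells expressing the human receptor were seeded at 1500 cells/well, incubated overnight at 37 degrees C in 5% CO2, then exposed to library compounds with dopamine controls for 90 minutes at 37 degrees C before luminescent detection.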
On the % scale 0 is the no-effect control and ±100 the full control effect.

Row | Compound | max response, negative = inhibition
1 | O=C(CN1CCN(C(=O)c2cccs2)CC1)NC1CCCCC1 | inconclusive: -31.6%
2 | O=C(CCc1ccc(S(=O)(=O)N2CCOCC2)cc1)Nc1cc(Cl)ccc1N1CCOCC1 | inconclusive: -39.3%
3 | O=C1[C@H]2[C@@H](c3ccccc3)N[C@]3(CCCN(Cc4ccco4)C3=O)[C@H]2C(=O)N1Cc1ccccc1 | active: -56%
4 | O=C(CN1CCN(c2ccc(Cl)cc2)CC1)c1ccccc1 | inconclusive: -32.4%
5 | CCN(CC)c1ccc(NC(=O)C2CCCC2)cc1 | inactive: -2.04%
6 | COc1ccc2c(c1OC)C(=O)OC2Nc1ccccn1 (centres undefined) | inconclusive: -37.9%
7 | Cc1ccc(C(=O)CC(=O)c2cccc(F)c2)c(O)c1 | active: -62%
8 | CC(C)(C)C(=O)n1nc(-c2ccccc2)oc1=O | inactive: -13.7%
9 | COc1ccccc1C(=O)COC(=O)c1cnc(C)cn1 | inconclusive: -36.9%
10 | O=C(O)CCCNS(=O)(=O)c1ccc2ccccc2c1 | inconclusive: -30.9%
11 | CCN(CC)c1ccc(CNc2nc3ccccc3n2CCN2CCOCC2)cc1 | inconclusive: -32.7%
12 | COc1ccc(-n2ncc(C(C)NS(=O)(=O)c3cc(F)ccc3C)c2C)cc1 (centres undefined) | active: -58%
13 | CCc1nc2ccc(C(=O)NCCCN3CCN(c4ccc(F)cc4)CC3)cc2nc1CC | inconclusive: -46.5%
14 | C=CCOc1cccc(C2C(C(=O)c3ccc(C)o3)=C(O)C(=O)N2c2nccs2)c1 (centres undefined) | inconclusive: -48.9%
15 | O=C(Oc1ccc(/C=N/n2cnnc2)cc1)c1cccc([N+](=O)[O-])c1 | inactive: -8.13%
16 | CN(CC(=O)Nc1ccccc1Cl)CC(=O)Nc1c(F)cccc1F | inconclusive: -34%
17 | CCCC[n+]1c2ccccc2cc2ccccc21 | active: -93.7%
18 | OC(CN1CCN(c2ccccc2F)CC1)c1ccc(F)cc1 (centres undefined) | inactive: -8.36%
19 | CCOc1ccccc1CN1CCNC(=O)C1CC(=O)NCCN1CCOC1=O (centres undefined) | inactive: 5.85%
20 | COC(=O)C(Cc1c[nH]c2ccccc12)NC(=O)CNC(C)=O (centres undefined) | active: -53.3%
21 | CCOc1ccccc1CN1CCN(Cc2cc3ccccc3[nH]2)CC1CCO (centres undefined) | inconclusive: -47.1%
22 | O=C(Cc1ccc(S(=O)(=O)N2CCOCC2)s1)Nc1cc(Cl)ccc1Cl | inactive: -3.84%

Row | Compound | max response, negative = inhibition
23 | OC(COC(c1ccc(Cl)cc1)c1ccc(Cl)cc1)CN1CCc2ccccc2C1 (centres undefined) | active: -55.9%
24 | O=C(NCCC1=CCCCC1)C1CCN(S(=O)(=O)c2ccc(Br)s2)CC1 | inactive: 4.01%
25 | COc1cc([N+](=O)[O-])cc(/C=N/NC(=O)CSc2ccccn2)c1O | active: -51.8%
26 | CCOC(=O)CNC(=O)c1ccc2[nH]c3ccccc3c2c1 | inactive: -2.35%
27 | COC(=O)N1C(=O)[C@](Cc2ccccc2)(c2ccccc2)N1C(=O)OC | inconclusive: -40.7%
28 | CC1(C)CC(=O)c2cc(OCC(=O)NCCN3CCCc4ccccc43)ccc2O1 | active: -67.5%
29 | O=C1NC[C@@H](Cc2cccc3ccccc23)N(CCC23CC4CC(CC(C4)C2)C3)C1=O | inconclusive: -46.4%
30 | Cc1cccc(NC(=S)NC(=O)c2cc(-c3ccccc3)nc3ccccc23)c1 | active: -53.6%
31 | CCCS(=O)(=O)N1CCC(C(=O)N2CCC(Cc3ccccc3)CC2)CC1 | inactive: 0%
32 | Cc1nn(CCCC(=O)Nc2cnn(Cc3ccc(F)cc3)c2)c(C)c1[N+](=O)[O-] | inactive: 3.88%
33 | Cc1ccc(OCCNC(=O)CNC(=O)c2ccc3c(c2)OCO3)cc1 | inactive: 11.3%
34 | CCCCn1c(-c2ccoc2C)n[nH]c1=S | inconclusive: -31%
35 | CC(C)(C(=O)N1CCC1(C)C(=O)NS(=O)(=O)c1ccc(Br)cc1)c1ccccc1 (centres undefined) | inactive: 11.9%
36 | O=C(O)c1cnc(-c2ccccc2)nc1Sc1ccccc1Cl | inconclusive: -45%
37 | COC(=O)C1=C(C)N(C)C(C)=C(C(=O)OC)C1c1ccc(C(=O)OC)cc1 | inconclusive: -44.6%
38 | COc1ccc2c(c1)OC(=O)CC2c1ccccc1OC (centres undefined) | inconclusive: -39.3%
39 | COc1ccc(C(=O)C[n+]2cccc3cc(OC)ccc32)cc1 | inconclusive: -37.4%
40 | O=[N+]([O-])c1ccc(/C=N/n2c(C3CCCCC3)n[nH]c2=S)cc1 | inconclusive: -30.7%
41 | O=C(Nc1ccc2c(c1)OCO2)c1ccc(CO)cc1 | inconclusive: -31.2%
42 | CN(C)CCCOC(=O)c1ccc(Cl)cc1 | inconclusive: -43.2%
43 | Cc1ccc(OCC(=O)N2CCC(N3CC(C)CC(C)C3)CC2)cc1 (centres undefined) | inconclusive: -34.8%
44 | O=C(Nc1cccc(-c2nnc(-c3ccco3)o2)c1)C(c1ccccc1)c1ccccc1 | inconclusive: -42.5%

Another view of nine compounds above.
Row,Compound,"max response, negative = inhibition"
27,COC(=O)N1C(=O)[C@](Cc2ccccc2)(c2ccccc2)N1C(=O)OC,inconclusive: -40.7%
29,O=C1NC[C@@H](Cc2cccc3ccccc23)N(CCC23CC4CC(CC(C4)C2)C3)C1=O,inconclusive: -46.4%
33,Cc1ccc(OCCNC(=O)CNC(=O)c2ccc3c(c2)OCO3)cc1,inactive: 11.3%
34,CCCCn1c(-c2ccoc2C)n[nH]c1=S,inconclusive: -31%
36,O=C(O)c1cnc(-c2ccccc2)nc1Sc1ccccc1Cl,inconclusive: -45%
37,COC(=O)C1=C(C)N(C)C(C)=C(C(=O)OC)C1c1ccc(C(=O)OC)cc1,inconclusive: -44.6%
40,O=[N+]([O-])c1ccc(/C=N/n2c(C3CCCCC3)n[nH]c2=S)cc1,inconclusive: -30.7%
42,CN(C)CCCOC(=O)c1ccc(Cl)cc1,inconclusive: -43.2%
43,Cc1ccc(OCC(=O)N2CCC(N3CC(C)CC(C)C3)CC2)cc1 (centres undefined),inconclusive: -34.8%
